# Experimental data published in the odorant receptor screen of Mainland et al. (2015).
# Values joined by “and” are separate entries in the source; they are usually repeats but may differ in a detail not shown here. Equal values may be shown once. This is one part of the list. Single wells; the ratio to wells without odorant was worked out here, and repeats agree poorly.
# Key:
# Test in all cases: odorant receptor activation (CRE luciferase / Renilla) (fold of no-odor wells); higher = more activation
# Conditions in all cases: 100 µM
# OR52H1 clone 1702 = tested on: OR52H1 clone 1702
# OR52I1 clone 1521 = tested on: OR52I1 clone 1521
# OR52I2 T132M clone 1324 = tested on: OR52I2 T132M clone 1324
# OR52K1 clone 1163 = tested on: OR52K1 clone 1163
# OR52K2 clone 1211 = tested on: OR52K2 clone 1211
# [1] = tested on: OR52L1 D73N/C125R/C146R/K168T/W282R clone 1116
# OR52L2 R169W clone 1117 = tested on: OR52L2 R169W clone 1117
# OR52M1 clone 1143 = tested on: OR52M1 clone 1143
# OR52N1 clone 1191 = tested on: OR52N1 clone 1191
# OR52N2 M228T clone 1569 = tested on: OR52N2 M228T clone 1569
# [2] = tested on: OR52N4 T106I/L167R/N218I clone 1127
# OR52N5 clone 1238 = tested on: OR52N5 clone 1238
# OR52P1 clone 1221 = tested on: OR52P1 clone 1221
# [3] = tested on: OR52R1 I129T/N201Y/S245A clone 1705
# OR52W1 clone 1234 = tested on: OR52W1 clone 1234
# OR56A1 clone 1114 = tested on: OR56A1 clone 1114
# OR56A3 M51T clone 1128 = tested on: OR56A3 M51T clone 1128
# OR56A4 clone 1724 = tested on: OR56A4 clone 1724
# OR56A5 clone 1708 = tested on: OR56A5 clone 1708
# OR56B1 C106R clone 1168 = tested on: OR56B1 C106R clone 1168
Structure (SMILES),odorant receptor activation (OR52H1 clone 1702),odorant receptor activation (OR52I1 clone 1521),odorant receptor activation (OR52I2 T132M clone 1324),odorant receptor activation (OR52K1 clone 1163),odorant receptor activation (OR52K2 clone 1211),odorant receptor activation [1],odorant receptor activation (OR52L2 R169W clone 1117),odorant receptor activation (OR52M1 clone 1143),odorant receptor activation (OR52N1 clone 1191),odorant receptor activation (OR52N2 M228T clone 1569),odorant receptor activation [2],odorant receptor activation (OR52N5 clone 1238),odorant receptor activation (OR52P1 clone 1221),odorant receptor activation [3],odorant receptor activation (OR52W1 clone 1234),odorant receptor activation (OR56A1 clone 1114),odorant receptor activation (OR56A3 M51T clone 1128),odorant receptor activation (OR56A4 clone 1724),odorant receptor activation (OR56A5 clone 1708),odorant receptor activation (OR56B1 C106R clone 1168)
CCCCOC(C)=O [butyl acetate],1.04,0.854,0.925,0.974,0.952,1.24,1.19,0.854,0.908,0.619,0.787,0.308,1.19,0.677,1.05,0.823,0.85,0.794,0.989,1.33
CCC(C)=O [2-butanone],0.714,1.1,0.957,0.747,0.663,14.9,18.3,1.21,0.879,0.76,0.885,0.534,0.8,0.87,0.894,17.8,1.44,1.15,0.902,0.664
CCOc1cc(C=O)ccc1O [ethyl vanillin],0.881,1.11 and 2.17 and 1.24,3.23 and 1.31,1.73 and 1.04,1.44 and 1.02,1.33,1.15,1.79 and 1.14,1.61 and 1.12,1.13,1.12,0.928,1.51 and 1.11,0.882,1.15,0.826 and 0.797,1.92 and 1.33,0.948,1.1,1.12 and 1.34
CS [methanethiol],1.15,0.885,0.868,0.787,0.992,1.04,1.03,0.809,1.31,0.75,0.78,0.888,0.93,0.974,0.757,1,1.49,0.682,1.33,0.802
